Results on one molecule are retold here after patent publication US20160347801A1 (NATIONAL CANCER CENTER, published 2016).

No constants are given. Whether binding was seen depends on the method and setting. Some results given as binding are weak or reduced against the parent protein; the word gives no strength. Where a sequence is shown, tags or fusion partners need not be part of it.

Assay [1] has as its target GST-PLK1 (UniProt P53350). Description: immunoprecipitation with Flag or GST bead, immunoblot (legend of FIGS. 7A to 7D). In general terms: Immunoblotting shows a protein as a band on a membrane.
Assay [2] concerns the target GST-PLK1 (UniProt P53350). The assay is described as follows: reciprocal pull-down with Flag and GST beads from transfected cells, immunoblot.

B1: Flag-NCAPG2 (full-length, wild type) (protein, not shown: small tags and cut ends)
chain: MEKRETFVQAVSKELVGEFLQFVQLDKEASDPFSLNELLDELSRKQKEELWQRLKNLLTDVLLESPVDGWQVVEAQGEDNMETEHGSKMRKSIEIIYAITSVILASVSVINESENYEALLECVIILNGILYALPESERKLQSSIQDLCVTWWEKGLPAKEDTGKTAFVMLLRRSLETKTGADVCRLWRIHQALYCFDYDLEESGEIKDMLLECFININYIKKEEGRRFLSCLFNWNINFIKMIHGTIKNQLQGLQKSLMVYIAEIYFRAWKKASGKILEAIENDCIQDFMFHGIHLPRRSPVHSKVREVLSYFHHQKKVRQGVEEMLYRLYKPILWRGLKARNSEVRSNAALLFVEAFPIRDPNLHAIEMDSEIQKQFEELYSLLEDPYPMVRSTGILGVCKITSKYWEMMPPTILIDLLKKVTGELAFDTSSADVRCSVFKCLPMILDNKLSHPLLEQLLPALRYSLHDNSEKVRVAFVDMLLKIKAVRAAKFWKICPMEHILVRLETDSRPVSRRLVSLIFNSFLPVNQPEEVWCERCVTLVQMNHAAARRFYQYAHEHTACTNIAKLIHVIRHCLNACIQRAVREPPEDEEEEDGREKENVTVLDKTLSVNDVACMAGLLEIIVILWKSIDRSMENNKEAKLYTINKFASVLPEYLKVFKDDRCKIPLFMLMSFMPASAVPPFSCGVISTLRSREEGAVDKSYCTLLDCLCSWGQVGHILELVDNWLPTEHAQAKSNTASKGRVQIHDTRPVKPELALVYIEYLLTHPKNRECLLSAPRKKLNHLLKALETSKADLESLLQTPGGKPRGFSEAAAPRAFGLHCRLSIHLQHKFCSEGKVYLSMLEDTGFWLESKILSFIQDQEEDYLKLHRVIYQQIIQTYLTVCKDVVMVGLGDHQFQMQLLQRSLGIMQTVKGFFYVSLLLDILKEITGSSLIQKTDSDEEVAMLLDTVQKVFQKMLECIARSFRKQPEEGLRLLYSVQRPLHEFITAVQSRHTDTPVHRGVLSTLIAGPVVEISHQLRKVSDVEELTPPEHLSDLPPFSRCLIGIIIKSSNVVRSFLDELKACVASNDIEGIVCLTAAVHIILVINAGKHKSSKVREVAATVHRKLKTFMEITLEEDSIERFLYESSSRTLGELLNS
With B1, the binding entry in assay [1] and in assay [2] was “binds” in each case.
